Measured values from PubChem BioAssay AID1671190 (National Center for Advancing Translational Sciences (NCATS), 2021).
Values joined by “and” are separate entries in the source; they are usually repeats but may differ in a detail not shown here. Equal values may be shown once. The whole screen tested about 580,000 compounds, of which about 6,100 (1.1%) were called active. The inconclusive results got no clear call from the source; some entries with a clear call stand among them for comparison. Calls come from the whole dose curve; as a rule, active = well fitted inhibition curve with a large enough effect; inconclusive = small, poorly fitted or top-dose-only effect, or another doubt; inactive = no such curve, though single readings can be large or run the other way. Where the call is inconclusive, the potency comes from a doubtful curve fit.

Protein sequences, listed by entry. Tags and fused reporters are not part of them. Lines headed by an entry give the natural chain unless they say otherwise; changes in a name come on top.
UniProt P18054: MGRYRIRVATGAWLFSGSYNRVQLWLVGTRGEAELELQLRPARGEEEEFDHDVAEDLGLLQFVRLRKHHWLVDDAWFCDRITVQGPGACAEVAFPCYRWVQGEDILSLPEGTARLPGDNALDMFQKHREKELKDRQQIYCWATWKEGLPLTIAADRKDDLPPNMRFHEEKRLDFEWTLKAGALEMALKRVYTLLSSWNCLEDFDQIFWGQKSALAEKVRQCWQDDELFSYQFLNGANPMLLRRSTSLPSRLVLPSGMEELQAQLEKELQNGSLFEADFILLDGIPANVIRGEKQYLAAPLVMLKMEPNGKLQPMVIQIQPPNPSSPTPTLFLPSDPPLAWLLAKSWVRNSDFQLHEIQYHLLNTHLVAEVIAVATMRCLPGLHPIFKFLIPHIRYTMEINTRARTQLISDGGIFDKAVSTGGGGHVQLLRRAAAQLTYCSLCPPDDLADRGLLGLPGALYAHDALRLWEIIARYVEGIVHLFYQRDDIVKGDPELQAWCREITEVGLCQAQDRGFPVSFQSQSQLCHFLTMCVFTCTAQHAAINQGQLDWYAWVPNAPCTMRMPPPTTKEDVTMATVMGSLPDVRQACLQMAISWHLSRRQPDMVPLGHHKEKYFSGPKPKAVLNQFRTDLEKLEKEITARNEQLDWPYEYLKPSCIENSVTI

These compounds were tested against Polyunsaturated fatty acid lipoxygenase ALOX12 (Homo sapiens) (UniProt P18054) (assay: Primary qHTS assay for inhibitors of human arachidonate 12S-lipoxygenase (ALOX12): Round 2). Conditions: purified 12hLO, xylenol orange hydroperoxide absorbance; activity change, negative = inhibition: at 108 µM (top of the series) unless noted.
How it was run: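 Purified human 12hLO at 150 nM in 25 mM Hepes, 0.01% Triton X-100, pH 7.0, preincubated 15 min at room temperature with compound. Reaction started with 40 uM arachidonic acid, 30 min at room temperature. Hydroperoxide measured by Fe-xylenol orange, 573/405 nm absorbance ratio.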
% is set by controls: 0 for no effect and ±100 for the full control effect; potency is the fitted concentration of half-maximal effect.

Row | SMILES | Potency | activity change, negative = inhibition
1 | O=C(O)C(Cc1ccc(O)cc1)N1C(=O)c2c(Cl)c(Cl)c(Cl)c(Cl)c2C1=O (stereo not given) | inconclusive: 28.2 µM [inhibitor, partial curve, poor fit] | 
2 | O=C(CSc1nc2cc(Cl)ccc2s1)Nc1cccc(S(=O)(=O)N2CCOCC2)c1 |  | inactive: -17%
3 | Cc1ccc(NC(=O)CSc2nc(O)cc(=O)n2-c2ccc(C)cc2)cc1 | active: 2.24 µM | 
4 | CNC(=O)C1(N2CCC[C@H]2C(=O)NCCOC)CCCCC1 | inconclusive: 11.2 µM [inhibitor, full curve] | 
5 | CCn1c(SCC(=O)N2CCN(c3ccccc3F)CC2)nnc1-c1ccoc1C | inconclusive: 25.1 µM [inhibitor, partial curve, poor fit] | 
6 | Cc1cccc(NC(=O)CSCC(=O)Nc2nnc(C3CC3)s2)c1 | inconclusive: 22.4 µM [inhibitor, partial curve, poor fit] | 
7 | COc1cccc(-c2nc3nc(C)cc(C)n3c2NC2CCCCC2)c1 |  | inactive: -25%
8 | COc1cccc(C2=CC(c3cccc(OC)c3OC)n3nnnc3N2)c1 (stereo not given) | inconclusive: 3.98 µM [inhibitor, full curve, poor fit] | 
9 | O=C(CNc1ccccc1C(=O)NCc1ccco1)NC(=O)NCc1ccccc1 |  | inactive: -34.9%
10 | CN(C)c1ccc(N2C(=O)CSC2=S)cc1 |  | inactive: -33.7%
11 | O=C1CN(S(=O)(=O)Cc2ccccc2)C[C@@H]2[C@H](c3ccc(Br)cc3)[C@@H](CO)N12 | inconclusive: 44.7 µM [inhibitor, partial curve, poor fit] | 
12 | Cc1ccc(OCCn2c(=S)[nH]c3ccccc32)c(C(C)C)c1 | active: 31.6 µM | 
13 | O=C(N1CCCCC1)N1CCCC(c2nnc3n2CCNC3)C1 (stereo not given) | inconclusive: 12.6 µM [inhibitor, partial curve] | 
14 | Cc1cc(C)c(NC(=S)NCC2CCN(C(C)c3ccccc3)C2)c(C)c1 (stereo not given) | inconclusive: 35.5 µM [inhibitor, partial curve] | 
15 | COc1ccc(OC)c(NC(=O)Nc2nnc([C@H]3C[C@H](O)[C@@H](CO)O3)s2)c1 | inconclusive: 158 µM [inhibitor, single point] | 
16 | CCc1noc([C@@H]2CC(F)(F)CN2C(=O)CCc2c(C)noc2C)n1 |  | inactive: 36.6%
17 | COc1ccc(C2CC(c3cccs3)n3nc(N)nc3N2)cc1 (stereo not given) | inconclusive: 8.91 µM [inhibitor, partial curve, poor fit] | 
18 | COc1ccccc1-c1nnc(NC(=O)c2ccc(S(=O)(=O)N(C)CC3CCCO3)cc2)o1 (stereo not given) |  | inactive: 0%
19 | CCCN(CCC)Cc1cc(=O)oc2ccc3ccccc3c12 | inconclusive: 44.7 µM [inhibitor, partial curve, poor fit] | 
20 | O=C(Nc1ccc2oc(-c3ccc4ccccc4c3)nc2c1)c1ccccc1F | inconclusive: 126 µM [inhibitor, partial curve, poor fit] | 

Row | SMILES | Potency | activity change, negative = inhibition
21 | CC(C)Cc1ccc(C(=O)C2CCNCC2)cc1 | inconclusive: 44.7 µM [inhibitor, partial curve, poor fit] | 
22 | CCNc1nc(-c2ccc(NC(=O)CC)cc2)cs1 | inconclusive: 31.6 µM [inhibitor, partial curve, poor fit] | 
23 | CC(C)C(NC(=O)c1ccc(Cl)cc1)C(=O)NCc1cnn(-c2ccccc2)c1 (stereo not given) |  | inactive: -14.7%
24 | CCCNC(=O)NC(=O)CN(C)C(C)C1CC1 (stereo not given) |  | inactive: 22.4%
25 | N#C/C(=C/c1ccc([N+](=O)[O-])cc1)C(=O)Nc1ccccc1O | inconclusive: 44.7 µM [inhibitor, partial curve, poor fit] | 
26 | CNC(=O)CC(=O)Nc1ccccc1C(=O)O | inconclusive: 44.7 µM [inhibitor, partial curve, poor fit] | 
27 | CC1=[N+](C)N(c2ccccc2)C(=O)C1N=C/C=C/c1ccccc1 (stereo not given) | inconclusive: 100 µM [inhibitor, partial curve, poor fit] | 
28 | COc1ccc(S(=O)(=O)NCCC(=O)OCc2cc(=O)oc3cc(C)ccc23)cc1[N+](=O)[O-] | inconclusive: 89.1 µM [inhibitor, partial curve, poor fit] | 
29 | Nc1nc2ccccc2n1/N=C/c1ccc2c(c1)OCO2 | inconclusive: 126 µM [inhibitor, single point] | 
30 | c1ccc(-c2cc(CC3(NCC4CC4)COC3)no2)nc1 | inconclusive: 6.31 µM [inhibitor, full curve] | 
31 | Cc1nc(N2CCCC2)c2c(C(=O)NCc3ccco3)c(C)oc2n1 | inconclusive: 112 µM [inhibitor, single point] | 
32 | COc1cccc(-c2cc(C(=O)Nc3ccc(N(C)C(C)=O)cc3)c3cc(Br)ccc3n2)c1 | inconclusive: 100 µM [inhibitor, partial curve, poor fit] | 
33 | Cc1cc(/C=C2\SC(=S)NC2=O)c(C)[nH]1 | inconclusive: 56.2 µM [inhibitor, partial curve, poor fit] | 
34 | Cc1cc(O)c2c(c1O)C(=O)[C@]13C(=C2O)C(=O)[C@@H]2[C@@H](O)[C@H]1[C@@H]1[C@H](O)[C@H]3C(=O)C3=C(O)c4c(O)cc(C)c(O)c4C(=O)[C@]312 | inconclusive: 39.8 µM [inhibitor, partial curve, poor fit] | 
35 | S=C(c1ccc(N2CCCC2)cc1)N1CCCCC1 | inconclusive: 31.6 µM [inhibitor, single point] | 
36 | CSc1cccc(NC(=O)Cc2ccc(Cl)cc2)c1 | inconclusive: 3.55 µM [inhibitor, full curve, poor fit] | 
37 | COc1ccc(NC(=O)C2CCC(CNS(=O)(=O)c3ccc(Br)s3)CC2)cc1OC (stereo not given) | inconclusive: 70.8 µM [inhibitor, partial curve, poor fit] | 
38 | COc1ccccc1CN1CCCC(C(=O)N2CCCCC2)C1 (stereo not given) | inconclusive: 562 nM [inhibitor, full curve, poor fit] and inconclusive: 22.4 µM [inhibitor, full curve, poor fit] | 
39 | Cc1nc2ccc([N+](=O)[O-])cc2c(=O)n1Cc1ccc(Cl)cc1 |  | inactive: 0%
40 | CCOc1ccc2nc(N(CCN(CC)CC)C(=O)c3ccc([N+](=O)[O-])cc3)sc2c1 | inconclusive: 70.8 µM [inhibitor, partial curve, poor fit] | 

Grouped by structure, the entries above with a halogen.
Row | SMILES | Potency | activity change, negative = inhibition
1 | O=C(O)C(Cc1ccc(O)cc1)N1C(=O)c2c(Cl)c(Cl)c(Cl)c(Cl)c2C1=O (stereo not given) | inconclusive: 28.2 µM [inhibitor, partial curve, poor fit] | 
2 | O=C(CSc1nc2cc(Cl)ccc2s1)Nc1cccc(S(=O)(=O)N2CCOCC2)c1 |  | inactive: -17%
5 | CCn1c(SCC(=O)N2CCN(c3ccccc3F)CC2)nnc1-c1ccoc1C | inconclusive: 25.1 µM [inhibitor, partial curve, poor fit] | 
11 | O=C1CN(S(=O)(=O)Cc2ccccc2)C[C@@H]2[C@H](c3ccc(Br)cc3)[C@@H](CO)N12 | inconclusive: 44.7 µM [inhibitor, partial curve, poor fit] | 
16 | CCc1noc([C@@H]2CC(F)(F)CN2C(=O)CCc2c(C)noc2C)n1 |  | inactive: 36.6%
20 | O=C(Nc1ccc2oc(-c3ccc4ccccc4c3)nc2c1)c1ccccc1F | inconclusive: 126 µM [inhibitor, partial curve, poor fit] | 
23 | CC(C)C(NC(=O)c1ccc(Cl)cc1)C(=O)NCc1cnn(-c2ccccc2)c1 (stereo not given) |  | inactive: -14.7%
32 | COc1cccc(-c2cc(C(=O)Nc3ccc(N(C)C(C)=O)cc3)c3cc(Br)ccc3n2)c1 | inconclusive: 100 µM [inhibitor, partial curve, poor fit] | 
36 | CSc1cccc(NC(=O)Cc2ccc(Cl)cc2)c1 | inconclusive: 3.55 µM [inhibitor, full curve, poor fit] | 
37 | COc1ccc(NC(=O)C2CCC(CNS(=O)(=O)c3ccc(Br)s3)CC2)cc1OC (stereo not given) | inconclusive: 70.8 µM [inhibitor, partial curve, poor fit] | 
39 | Cc1nc2ccc([N+](=O)[O-])cc2c(=O)n1Cc1ccc(Cl)cc1 |  | inactive: 0%
